Paper PMC6636018
Results are given in words; binding and its absence hold for the method and conditions named. In cells and extracts the contact can be indirect. Some binding calls cover weakened binding; strength is not graded here.

Chains of the proteins cited; added tags and fusions are not shown.
UniProt Q00987: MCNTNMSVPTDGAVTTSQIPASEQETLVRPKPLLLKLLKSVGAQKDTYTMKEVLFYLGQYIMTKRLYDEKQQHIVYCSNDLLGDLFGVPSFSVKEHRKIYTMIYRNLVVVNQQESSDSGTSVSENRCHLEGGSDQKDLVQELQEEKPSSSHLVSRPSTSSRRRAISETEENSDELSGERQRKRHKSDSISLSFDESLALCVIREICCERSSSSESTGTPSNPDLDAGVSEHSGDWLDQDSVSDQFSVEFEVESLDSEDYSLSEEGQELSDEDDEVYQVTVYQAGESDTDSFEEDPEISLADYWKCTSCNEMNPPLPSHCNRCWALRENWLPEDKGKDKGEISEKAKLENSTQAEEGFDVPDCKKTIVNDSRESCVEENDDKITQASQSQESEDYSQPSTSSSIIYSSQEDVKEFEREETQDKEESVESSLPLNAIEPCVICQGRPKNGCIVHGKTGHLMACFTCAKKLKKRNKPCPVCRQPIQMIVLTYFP

Target: MDM2 (endogenous) (human (endogenous in HCT116 p53-/-)) (UniProt Q00987)
Assay: co-IP; endogenous proteins; HCT116 p53-/- cells lysed; precipitated with anti-MDM2 antibody, mouse IgG as negative control

B1: PHLDB2 (endogenous) (protein, UniProt Q86SQ0 1-1253)
chain: MEEHSYIQKELDLQNGSLEEDSVVHSVENDSQNMMESLSPKKYSSSLRFKANGDYSGSYLTLSQPVPAKRSPSPLGTSVRSSPSLAKIQGSKQFSYDGTDKNIPMKPPTPLLNTTSSLSGYPLGRADFDHYTGRDSERALRLSEKPPYSKYSSRHKSHDNVYSLGGLEGRKASGSLLAMWNGSSLSDAGPPPISRSGAASMPSSPKQARKMSIQDSLALQPKLTRHKELASENINLRTRKYSSSSLSHMGAYSRSLPRLYRATENQLTPLSLPPRNSLGNSKRTKLGEKDLPHSVIDNDNYLNFSSLSSGALPYKTSASEGNPYVSSTLSVPASPRVARKMLLASTSSCASDDFDQASYVGTNPSHSLLAGESDRVFATRRNFSCGSVEFDEADLESLRQASGTPQPALRERKSSISSISGRDDLMDYHRRQREERLREQEMERLERQRLETILSLCAEYTKPDSRLSTGTTVEDVQKINKELEKLQLSDEESVFEEALMSPDTRYRCHRKDSLPDADLASCGSLSQSSASFFTPRSTRNDELLSDLTRTPPPPSSTFPKASSESSYLSILPKTPEGISEEQRSQELAAMEETRIVILNNLEELKQKIKDINDQMDESFRELDMECALLDGEQKSETTELMKEKEILDHLNRKIAELEKNIVGEKTKEKVKLDAEREKLERLQELYSEQKTQLDNCPESMREQLQQQLKRDADLLDVESKHFEDLEFQQLEHESRLDEEKENLTQQLLREVAEYQRNIVSRKEKISALKKQANHIVQQAQREQDHFVKEKNNLIMMLQREKENLCNLEKKYSSLSGGKGFPVNPNTLKEGYISVNEINEPCGNSTNLSPSTQFPADADAVATEPATAVLASQPQSKEHFRSLEERKKQHKEGLYLSDTLPRKKTTSSISPHFSSATMGRSITPKAHLPLGQSNSCGSVLPPSLAAMAKDSESRRMLRGYNHQQMSEGHRQKSEFYNRTASESNVYLNSFHYPDHSYKDQAFDTLSLDSSDSMETSISACSPDNISSASTSNIARIEEMERLLKQAHAEKTRLLESREREMEAKKRALEEEKRRREILEKRLQEETSQRQKLIEKEVKIRERQRAQARPLTRYLPVRKEDFDLRSHVETAGHNIDTCYHVSITEKTCRGFLIKMGGKIKTWKKRWFVFDRNKRTFSYYADKHETKLKGVIYFQAIEEVYYDHLKNANKSPNPLLTFSVKTHDRIYYMVAPSPEAMRIWMDVIVTGAEGYTHFLL
Question: With B1 as the binder, how does the binding read?
Answer: Its binding is “binds”.
